These results are taken from publication PMC9589885, “A designed antimicrobial peptide with potential ability against methicillin resistant Staphylococcus aureus” (Frontiers in Microbiology, 2022).

This assay deals with Candida albicans (ATCC/0331). The assay is described as follows: microbe, parasite or virus in culture. The settings on record: C. albicans ATCC/0331, broth dilution, 37°C, 16 h. The class given is cell-based. From the text:
The standard strain of Staphylococcus aureus (S. aureus, ATCC6538), Escherichia coli (E. coli, ATCC25922), Pseudomonas aeruginosa (P. aeruginosa, ATCC9027), Acinetobacter baumannii (A. baumannii, ATCC19606) and Candida albicans (C. albicans, ATCC/0331) used in this experiment was purchased from the microbial strain collection center of Guangdong Province. The methicillin resistant strain of Staphylococcus aureus (MRSA, SAZ) and clinically isolated antibiotic-resistance strains (SA115775 and SA15192) were clinically isolated from the First Affiliated Hospital of Kunming Medical University. The strains of C. albicans were cultured in 1/3 YM Medium (HB0297-1) + 2/3 RPMI 1640 medium (10-040-CVR, Corning), and other bacterial strains were cultured in Luria-Bertani (LB: 2 g tryptone, 1 g yeast extract, 2 g sodium chloride and 200 ml deionized water) broth.
Briefly, bacteria strains were diluted and adjusted to the concentration of 2 × 10^5 CFU/ml using RPMI 1640 medium. Samples were prepared as a stock solution in saline, and then diluted to a series of concentrations. […] Finally, an absorbance at 600 nm was measured by a microplate reader to estimate bacterial growth. The MIC was defined as the lowest concentration where the bacterial growth could not be detected completely.

In brackets after ≈: the same amount, converted by molar mass.

`OC(Cn1cncn1)(Cn1cncn1)c1ccc(F)cc1F` [Fluconazol, fluconazol] yielded an MIC of 1.27 µM (≈ 0.389 µg/mL).
